Data on one substance can be found in article PMC5836448.

Sequences of proteins named here, by UniProt entry; tags and fusion partners are left off.
UniProt Q86V15: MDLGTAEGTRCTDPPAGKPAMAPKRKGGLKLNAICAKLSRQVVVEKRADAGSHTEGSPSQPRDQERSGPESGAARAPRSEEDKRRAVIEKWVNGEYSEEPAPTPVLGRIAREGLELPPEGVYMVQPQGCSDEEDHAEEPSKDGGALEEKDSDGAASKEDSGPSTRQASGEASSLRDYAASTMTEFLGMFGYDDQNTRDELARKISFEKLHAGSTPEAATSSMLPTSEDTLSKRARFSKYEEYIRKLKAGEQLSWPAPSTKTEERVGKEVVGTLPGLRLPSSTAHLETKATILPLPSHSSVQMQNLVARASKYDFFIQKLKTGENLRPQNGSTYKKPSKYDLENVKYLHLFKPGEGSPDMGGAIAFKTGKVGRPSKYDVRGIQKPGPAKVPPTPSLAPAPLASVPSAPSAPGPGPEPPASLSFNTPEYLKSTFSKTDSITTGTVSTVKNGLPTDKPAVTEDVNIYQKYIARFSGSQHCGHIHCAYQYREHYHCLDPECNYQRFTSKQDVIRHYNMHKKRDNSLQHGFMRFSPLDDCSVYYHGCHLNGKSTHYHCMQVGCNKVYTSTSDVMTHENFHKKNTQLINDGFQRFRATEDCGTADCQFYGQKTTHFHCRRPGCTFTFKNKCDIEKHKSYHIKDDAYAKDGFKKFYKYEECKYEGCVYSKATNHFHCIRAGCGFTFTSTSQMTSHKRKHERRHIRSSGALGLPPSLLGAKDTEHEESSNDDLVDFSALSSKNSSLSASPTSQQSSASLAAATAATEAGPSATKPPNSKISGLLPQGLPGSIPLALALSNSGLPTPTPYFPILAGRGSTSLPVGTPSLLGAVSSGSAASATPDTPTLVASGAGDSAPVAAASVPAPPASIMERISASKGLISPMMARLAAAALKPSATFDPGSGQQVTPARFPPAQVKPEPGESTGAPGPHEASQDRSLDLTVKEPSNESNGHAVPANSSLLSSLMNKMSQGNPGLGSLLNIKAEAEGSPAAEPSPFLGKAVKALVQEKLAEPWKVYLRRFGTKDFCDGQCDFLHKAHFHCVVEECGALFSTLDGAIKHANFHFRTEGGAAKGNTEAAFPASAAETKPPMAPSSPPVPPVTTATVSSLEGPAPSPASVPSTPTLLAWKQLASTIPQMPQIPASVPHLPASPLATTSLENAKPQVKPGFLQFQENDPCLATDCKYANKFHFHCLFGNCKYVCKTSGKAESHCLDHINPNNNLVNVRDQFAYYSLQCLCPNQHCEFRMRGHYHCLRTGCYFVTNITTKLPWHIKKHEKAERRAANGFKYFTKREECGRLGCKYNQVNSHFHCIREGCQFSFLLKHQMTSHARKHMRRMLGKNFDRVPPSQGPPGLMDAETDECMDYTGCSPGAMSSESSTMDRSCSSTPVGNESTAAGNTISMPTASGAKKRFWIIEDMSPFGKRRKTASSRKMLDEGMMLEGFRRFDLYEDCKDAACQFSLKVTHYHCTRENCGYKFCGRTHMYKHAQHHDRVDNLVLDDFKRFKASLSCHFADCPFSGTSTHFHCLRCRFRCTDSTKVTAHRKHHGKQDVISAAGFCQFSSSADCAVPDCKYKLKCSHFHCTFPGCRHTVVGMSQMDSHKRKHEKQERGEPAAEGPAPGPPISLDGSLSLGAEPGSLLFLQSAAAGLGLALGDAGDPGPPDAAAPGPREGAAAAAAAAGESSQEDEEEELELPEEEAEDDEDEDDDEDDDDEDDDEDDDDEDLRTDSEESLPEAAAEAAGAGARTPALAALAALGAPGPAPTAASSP

No constants are given. Whether binding was seen depends on the method and setting. Binding seen in cells or lysates may run through a third protein. Some binding calls cover weakened binding; strength is not graded here.

For this experiment, the target named is raf-1 proto-oncogene, serine/threonine kinase (human (endogenous in HCCLM3 and PLC/PRF/5)) (UniProt P04049). The experiment is described as follows: co-IP; pre-cleared whole cell lysates of HCCLM3^CASZ1, HCCLM3 and PLC/PRF/5 cells; antibody against CASZ1 or RAF1 conjugated to AminoLink Plus Resin, 4 °C overnight; gentle elution buffer; western blot. On the technique in general: A western blot detects proteins with antibodies after separation by electrophoresis.

Take “Castor zinc finger 1 (from UniProt Q86V15 1-1759)”: the binding result is listed as “binds”.
